{"source": "the supplement of paper PMC8728848", "experiment_in_all_cases": "glycan array binding signal (z-score within array); higher = stronger binding", "conditions_in_all_cases": "glycan notation: IUPAC condensed, linker removed", "key": {"[1]": {"biological_target": "Neu5Ac(a2-3)Gal(b1-3)]Neu5Ac(a2-3)Gal(b1-4)]GlcNAc", "procedure,_shortened": "(§1)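 Glycan array data were curated from 3228 arrays in the Consortium for Functional Glycomics database and kept only where the protein sequence was available. Glycan names were converted to IUPAC-condensed notation, and columns mapping to the same glycan were averaged. The binding signal is a within-array Z-score, averaged across arrays of the same protein sequence at different concentrations or buffers and across linkers. Negative Z-scores can be read as non-binding.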"}, "Neu5Ac(a2-3)Gal(b1-4)Glc": {"biological_target": "Neu5Ac(a2-3)Gal(b1-4)Glc", "procedure,_shortened": "as §1"}, "[2]": {"biological_target": "Neu5Ac(a2-3)Gal(b1-4)GlcNAc", "procedure,_shortened": "as §1"}, "[3]": {"biological_target": "Neu5Ac(a2-3)Gal(b1-4)GlcNAc(b1-2)Man", "procedure,_shortened": "as §1"}, "[4]": {"biological_target": "Neu5Ac(a2-3)Gal(b1-4)GlcNAc(b1-2)Man(a1-3)[GlcNAc(b1-4)][Neu5Ac(a2-3)Gal(b1-4)GlcNAc(b1-2)Man(a1-6)]Man(b1-4)GlcNAc(b1-4)GlcNAc", "procedure,_shortened": "as §1"}, "[5]": {"biological_target": "Neu5Ac(a2-3)Gal(b1-4)GlcNAc(b1-2)Man(a1-3)[Neu5Ac(a2-3)Gal(b1-4)GlcNAc(b1-2)Man(a1-6)]Man(b1-4)GlcNAc(b1-4)GlcNAc", "procedure,_shortened": "as §1"}, "[6]": {"biological_target": "Neu5Ac(a2-3)Gal(b1-4)GlcNAc(b1-2)Man(a1-3)[Neu5Ac(a2-3)Gal(b1-4)GlcNAc(b1-2)Man(a1-6)]Man(b1-4)GlcNAc(b1-4)[Fuc(a1-6)]GlcNAc", "procedure,_shortened": "as §1"}, "[7]": {"biological_target": "Neu5Ac(a2-3)Gal(b1-4)GlcNAc(b1-2)Man(a1-3)[Neu5Ac(a2-6)Gal(b1-4)GlcNAc(b1-2)Man(a1-6)]Man(b1-4)GlcNAc(b1-4)GlcNAc", "procedure,_shortened": "as §1"}, "[8]": {"biological_target": "Neu5Ac(a2-3)Gal(b1-4)GlcNAc(b1-2)[Neu5Ac(a2-3)Gal(b1-4)GlcNAc(b1-2)]Man(a1-6)[Neu5Ac(a2-3)Gal(b1-4)GlcNAc(b1-2)Man(a1-3)][GlcNAc(b1-4)]Man(b1-4)GlcNAc(b1-4)GlcNAc", "procedure,_shortened": "as §1"}, "[9]": {"biological_target": "Neu5Ac(a2-3)Gal(b1-4)GlcNAc(b1-2)[Neu5Ac(a2-3)Gal(b1-4)GlcNAc(b1-4)]Man(a1-3)[GlcNAc(b1-4)][Neu5Ac(a2-3)Gal(b1-4)GlcNAc(b1-2)[Neu5Ac(a2-3)Gal(b1-4)GlcNAc(b1-6)]Man(a1-6)]Man(b1-4)GlcNAc(b1-4)GlcNAc", "procedure,_shortened": "as §1"}, "[10]": {"biological_target": "Neu5Ac(a2-3)Gal(b1-4)GlcNAc(b1-2)[Neu5Ac(a2-3)Gal(b1-4)GlcNAc(b1-4)]Man(a1-3)[GlcNAc(b1-4)][Neu5Ac(a2-3)Gal(b1-4)GlcNAc(b1-4)Man(a1-6)]Man(b1-4)GlcNAc(b1-4)GlcNAc", "procedure,_shortened": "as §1"}, "[11]": {"biological_target": "Neu5Ac(a2-3)Gal(b1-4)GlcNAc(b1-2)[Neu5Ac(a2-3)Gal(b1-4)GlcNAc(b1-6)]Man(a1-6)[Neu5Ac(a2-3)Gal(b1-4)GlcNAc(b1-2)Man(a1-3)]Man(b1-4)GlcNAc(b1-4)GlcNAc", "procedure,_shortened": "as §1"}, "[12]": {"biological_target": "Neu5Ac(a2-3)Gal(b1-4)GlcNAc(b1-3)Gal", "procedure,_shortened": "as §1"}, "[13]": {"biological_target": "Neu5Ac(a2-3)Gal(b1-4)GlcNAc(b1-3)Gal(b1-3)GlcNAc", "procedure,_shortened": "as §1"}, "[14]": {"biological_target": "Neu5Ac(a2-3)Gal(b1-4)GlcNAc(b1-3)Gal(b1-4)GlcNAc", "procedure,_shortened": "as §1"}, "[15]": {"biological_target": "Neu5Ac(a2-3)Gal(b1-4)GlcNAc(b1-3)Gal(b1-4)GlcNAc(b1-2)Man(a1-3)[Neu5Ac(a2-3)Gal(b1-4)GlcNAc(b1-3)Gal(b1-4)GlcNAc(b1-2)Man(a1-6)]Man(b1-4)GlcNAc(b1-4)GlcNAc", "procedure,_shortened": "as §1"}, "[16]": {"biological_target": "Neu5Ac(a2-3)Gal(b1-4)GlcNAc(b1-3)Gal(b1-4)GlcNAc(b1-3)Gal(b1-4)GlcNAc", "procedure,_shortened": "as §1"}, "[17]": {"biological_target": "Neu5Ac(a2-3)Gal(b1-4)GlcNAc(b1-3)Gal(b1-4)GlcNAc(b1-3)Gal(b1-4)GlcNAc(b1-2)Man(a1-3)[Neu5Ac(a2-3)Gal(b1-4)GlcNAc(b1-3)Gal(b1-4)GlcNAc(b1-3)Gal(b1-4)GlcNAc(b1-2)Man(a1-6)]GalNAc", "procedure,_shortened": "as §1"}, "[18]": {"biological_target": "Neu5Ac(a2-3)Gal(b1-4)GlcNAc(b1-3)Gal(b1-4)GlcNAc(b1-3)GalNAc", "procedure,_shortened": "as §1"}, "[19]": {"biological_target": "Neu5Ac(a2-3)Gal(b1-4)GlcNAc(b1-3)Gal(b1-4)GlcNAc(b1-3)[Neu5Ac(a2-3)Gal(b1-4)GlcNAc(b1-3)Gal(b1-4)GlcNAc(b1-6)]GalNAc", "procedure,_shortened": "as §1"}, "[20]": {"biological_target": "Neu5Ac(a2-3)Gal(b1-4)GlcNAc(b1-3)Gal(b1-4)GlcNAc(b1-6)[Gal(b1-3)]GalNAc", "procedure,_shortened": "as §1"}, "[21]": {"biological_target": "Neu5Ac(a2-3)Gal(b1-4)GlcNAc(b1-3)Gal(b1-4)[Fuc(a1-3)]GlcNAc", "procedure,_shortened": "as §1"}, "[22]": {"biological_target": "Neu5Ac(a2-3)Gal(b1-4)GlcNAc(b1-3)GalNAc", "procedure,_shortened": "as §1"}, "[23]": {"biological_target": "Neu5Ac(a2-3)Gal(b1-4)GlcNAc(b1-3)[Neu5Ac(a2-3)Gal(b1-4)GlcNAc(b1-6)]GalNAc", "procedure,_shortened": "as §1"}, "[24]": {"biological_target": "Neu5Ac(a2-3)Gal(b1-4)GlcNAc(b1-6)GalNAc", "procedure,_shortened": "as §1"}, "[25]": {"biological_target": "Neu5Ac(a2-3)Gal(b1-4)GlcNAc(b1-6)[Gal(b1-3)]GalNAc", "procedure,_shortened": "as §1"}, "[26]": {"biological_target": "Neu5Ac(a2-3)Gal(b1-4)GlcNAc(b1-6)[Neu5Ac(a2-3)Gal(b1-3)]GalNAc", "procedure,_shortened": "as §1"}, "[27]": {"biological_target": "Neu5Ac(a2-3)Gal(b1-4)GlcNAc6S", "procedure,_shortened": "as §1"}, "[28]": {"biological_target": "Neu5Ac(a2-3)Gal(b1-4)[Fuc(a1-3)]GlcNAc", "procedure,_shortened": "as §1"}, "[29]": {"biological_target": "Neu5Ac(a2-3)Gal(b1-4)[Fuc(a1-3)]GlcNAc(b1-2)Man", "procedure,_shortened": "as §1"}, "[30]": {"biological_target": "Neu5Ac(a2-3)Gal(b1-4)[Fuc(a1-3)]GlcNAc(b1-3)Gal", "procedure,_shortened": "as §1"}, "[31]": {"biological_target": "Neu5Ac(a2-3)Gal(b1-4)[Fuc(a1-3)]GlcNAc(b1-3)Gal(b1-4)GlcNAc", "procedure,_shortened": "as §1"}, "[32]": {"biological_target": "Neu5Ac(a2-3)Gal(b1-4)[Fuc(a1-3)]GlcNAc(b1-3)Gal(b1-4)[Fuc(a1-3)]GlcNAc(b1-3)Gal(b1-4)[Fuc(a1-3)]GlcNAc", "procedure,_shortened": "as §1"}, "[33]": {"biological_target": "Neu5Ac(a2-3)Gal(b1-4)[Fuc(a1-3)]GlcNAc(b1-3)GalNAc", "procedure,_shortened": "as §1"}, "[34]": {"biological_target": "Neu5Ac(a2-3)Gal(b1-4)[Fuc(a1-3)]GlcNAc(b1-6)[Gal(b1-3)]GalNAc", "procedure,_shortened": "as §1"}, "[35]": {"biological_target": "Neu5Ac(a2-3)Gal(b1-4)[Fuc(a1-3)]GlcNAc(b1-6)[Neu5Ac(a2-3)Gal(b1-3)]GalNAc", "procedure,_shortened": "as §1"}, "[36]": {"biological_target": "Neu5Ac(a2-3)Gal(b1-4)[Fuc(a1-3)]GlcNAc6S", "procedure,_shortened": "as §1"}, "[37]": {"biological_target": "Neu5Ac(a2-3)Gal6S(b1-4)GlcNAc", "procedure,_shortened": "as §1"}}, "note": "This is one part of the list.", "data": [{"binder": "RbmA (Vibrio cholerae), A0A2H4NFB8 (protein) MSNFKGSIMNKRHYYLASCLALLFSTASYAEVDCELQPVIEANLSLNQNQLASNGGYISSQLGIRNESCETVKFKYWLSIKGPEGIYFPAKAVVGVDTAQQESDALTDGRMLNVTRGFWVPEYMADGKYTVSLQVVAENGEVFKANQEFVKGGDLNSLPELNGLTIDIKNQFGINSVESTGGFVPFTIDLNNGREGEAKVEFWMTAVGPDGLIIPVHSREKWMIIAGNTFSKVRGINFDKSYPAGEYTINAQVVDIVSGERVEQLMTVVKK", "values": [{"measurement": "glycan array binding signal (z-score)", "setting": "[1]", "value": -0.113}, {"measurement": "glycan array binding signal (z-score)", "setting": "Neu5Ac(a2-3)Gal(b1-4)Glc", "value": -0.613}, {"measurement": "glycan array binding signal (z-score)", "setting": "[2]", "value": -0.847}, {"measurement": "glycan array binding signal (z-score)", "setting": "[3]", "value": 3.52}, {"measurement": "glycan array binding signal (z-score)", "setting": "[4]", "value": -1.01}, {"measurement": "glycan array binding signal (z-score)", "setting": "[5]", "value": 0.712}, {"measurement": "glycan array binding signal (z-score)", "setting": "[6]", "value": 1.49}, {"measurement": "glycan array binding signal (z-score)", "setting": "[7]", "value": -0.395}, {"measurement": "glycan array binding signal (z-score)", "setting": "[8]", "value": -0.452}, {"measurement": "glycan array binding signal (z-score)", "setting": "[9]", "value": 1.66}, {"measurement": "glycan array binding signal (z-score)", "setting": "[10]", "value": 2.63}, {"measurement": "glycan array binding signal (z-score)", "setting": "[11]", "value": 0.163}, {"measurement": "glycan array binding signal (z-score)", "setting": "[12]", "value": 0.04}, {"measurement": "glycan array binding signal (z-score)", "setting": "[13]", "value": -0.862}, {"measurement": "glycan array binding signal (z-score)", "setting": "[14]", "value": 0.402}, {"measurement": "glycan array binding signal (z-score)", "setting": "[15]", "value": -0.354}, {"measurement": "glycan array binding signal (z-score)", "setting": "[16]", "value": -0.749}, {"measurement": "glycan array binding signal (z-score)", "setting": "[17]", "value": 0.862}, {"measurement": "glycan array binding signal (z-score)", "setting": "[18]", "value": 0.248}, {"measurement": "glycan array binding signal (z-score)", "setting": "[19]", "value": -0.228}, {"measurement": "glycan array binding signal (z-score)", "setting": "[20]", "value": -0.096}, {"measurement": "glycan array binding signal (z-score)", "setting": "[21]", "value": -0.402}, {"measurement": "glycan array binding signal (z-score)", "setting": "[22]", "value": -0.626}, {"measurement": "glycan array binding signal (z-score)", "setting": "[23]", "value": 0.017}, {"measurement": "glycan array binding signal (z-score)", "setting": "[24]", "value": -0.174}, {"measurement": "glycan array binding signal (z-score)", "setting": "[25]", "value": -0.604}, {"measurement": "glycan array binding signal (z-score)", "setting": "[26]", "value": -0.282}, {"measurement": "glycan array binding signal (z-score)", "setting": "[27]", "value": 3}, {"measurement": "glycan array binding signal (z-score)", "setting": "[28]", "value": -0.877}, {"measurement": "glycan array binding signal (z-score)", "setting": "[29]", "value": 0.266}, {"measurement": "glycan array binding signal (z-score)", "setting": "[30]", "value": -0.658}, {"measurement": "glycan array binding signal (z-score)", "setting": "[31]", "value": -0.327}, {"measurement": "glycan array binding signal (z-score)", "setting": "[32]", "value": 2.66}, {"measurement": "glycan array binding signal (z-score)", "setting": "[33]", "value": 3.93}, {"measurement": "glycan array binding signal (z-score)", "setting": "[34]", "value": -0.351}, {"measurement": "glycan array binding signal (z-score)", "setting": "[35]", "value": 0.142}, {"measurement": "glycan array binding signal (z-score)", "setting": "[36]", "value": -0.009}, {"measurement": "glycan array binding signal (z-score)", "setting": "[37]", "value": -0.128}]}]}
